Results are given in words; binding and its absence hold for the method and conditions named. For some assays here: Binding seen in cells or lysates may run through a third protein. Some binding calls cover weakened binding; strength is not graded here.
How the values were obtained:
[1] = biological target: endogenous LAT1 (SLC7A5) (human (endogenous in HeLa, HepG2, A431)) (UniProt Q01650); assay: non-reducing gel electrophoresis with Western blot; endogenous proteins of HeLa, HepG2 and A431 cells and of the lysosomal fraction of HeLa cells (without and with IFN-γ) separated without reducing the disulfide bond
[2] = biological target: endogenous LAT1-4F2hc heterodimer on the HeLa cell surface (human (endogenous in HeLa)) (UniProt Q01650+P08195); assay: cross-linking; HeLa cells incubated with BS3 to crosslink cell surface complexes; Western blot with anti-LAT1 antibody

Amino acid sequences for entries named in this document (tags omitted). A change or cut given only in a name is not applied to a line headed by its entry.
UniProt Q01650: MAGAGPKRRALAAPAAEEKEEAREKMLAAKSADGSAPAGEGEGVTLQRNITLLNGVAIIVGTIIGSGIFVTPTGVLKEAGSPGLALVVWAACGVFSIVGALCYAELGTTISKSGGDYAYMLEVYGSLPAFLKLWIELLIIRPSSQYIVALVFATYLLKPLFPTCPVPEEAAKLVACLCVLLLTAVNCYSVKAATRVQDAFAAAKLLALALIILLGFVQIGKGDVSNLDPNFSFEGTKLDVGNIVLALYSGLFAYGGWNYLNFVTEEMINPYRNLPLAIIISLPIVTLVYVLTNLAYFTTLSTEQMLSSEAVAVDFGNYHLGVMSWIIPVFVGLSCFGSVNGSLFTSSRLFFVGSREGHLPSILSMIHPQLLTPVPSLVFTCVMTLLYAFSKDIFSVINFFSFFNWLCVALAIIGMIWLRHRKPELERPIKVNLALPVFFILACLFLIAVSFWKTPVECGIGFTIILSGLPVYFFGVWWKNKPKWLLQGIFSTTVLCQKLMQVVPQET
UniProt P08195: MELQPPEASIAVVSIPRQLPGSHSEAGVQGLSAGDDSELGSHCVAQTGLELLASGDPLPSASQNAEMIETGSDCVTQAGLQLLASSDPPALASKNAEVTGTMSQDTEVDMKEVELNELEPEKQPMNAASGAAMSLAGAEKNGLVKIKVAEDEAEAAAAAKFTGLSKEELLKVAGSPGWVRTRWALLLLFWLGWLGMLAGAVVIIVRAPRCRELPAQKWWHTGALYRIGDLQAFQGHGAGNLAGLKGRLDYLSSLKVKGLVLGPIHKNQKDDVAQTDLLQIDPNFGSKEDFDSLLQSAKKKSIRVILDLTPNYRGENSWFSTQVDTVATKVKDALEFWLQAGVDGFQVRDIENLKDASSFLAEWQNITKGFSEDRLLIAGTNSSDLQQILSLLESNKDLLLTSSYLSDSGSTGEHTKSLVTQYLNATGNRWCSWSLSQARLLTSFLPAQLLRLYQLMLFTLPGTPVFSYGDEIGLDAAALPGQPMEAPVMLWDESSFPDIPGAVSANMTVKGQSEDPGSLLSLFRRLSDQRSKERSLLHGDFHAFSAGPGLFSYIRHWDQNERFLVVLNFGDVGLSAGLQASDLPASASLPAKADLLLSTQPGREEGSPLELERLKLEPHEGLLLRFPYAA

Row | Substance | binding [1] | binding [2]
1 | endogenous 4F2hc (SLC3A2) (from UniProt P08195-1 1-630) | binds | 
2 | endogenous LAT1-4F2hc heterodimer on the HeLa cell surface (from UniProt Q01650 1-507; P08195-1 1-630) (complex) |  | binds

From publication PMC11065870
